The record followed here is patent publication US20140255378A1.

Assay [1] addresses YRS(1-353)A4C (human tyrosyl-tRNA synthetase residues 1-353 with A4C, C67S and C250S), unPEGylated (human) (UniProt P54577). Briefly: size exclusion chromatography (Superdex 200), self-association into homodimer.
For assay [2], the target named is YRS(1-353)A351C (human tyrosyl-tRNA synthetase residues 1-353 with C67S, C250S and A351C), unPEGylated (human) (UniProt P54577). The description is as above.

Results are given in words; binding and its absence hold for the method and conditions named. Some entries that bind do so weakly or less than the wild type.

B1: YRS(1-353)A4C (human tyrosyl-tRNA synthetase residues 1-353 with A4C, C67S and C250S), unPEGylated (enzyme)
chain: MGDCPSPEEKLHLITRNLQEVLGEEKLKEILKERELKIYWGTATTGKPHVAYFVPMSKIADFLKAGSEVTILFADLHAYLDNMKAPWELLELRVSYYENVIKAMLESIGVPLEKLKFIKGTDYQLSKEYTLDVYRLSSVVTQHDSKKAGAEVVKQVEHPLLSGLLYPGLQALDEEYLKVDAQFGGIDQRKIFTFAEKYLPALGYSKRVHLMNPMVPGLTGSKMSSSEEESKIDLLDRKEDVKKKLKKAFSEPGNVENNGVLSFIKHVLFPLKSEFVILRDEKWGGNKTYTAYVDLEKDFAAEVVHPGDLKNSVEVALNKLLDPIREKFNTPALKKLASAAYPDPSKQKPMAKGHHHHHH
With B1, the binding entry in assay [1] is recorded as “binds”.

B2: YRS(1-353)A351C (human tyrosyl-tRNA synthetase residues 1-353 with C67S, C250S and A351C), unPEGylated (enzyme)
chain: MGDAPSPEEKLHLITRNLQEVLGEEKLKEILKERELKIYWGTATTGKPHVAYFVPMSKIADFLKAGSEVTILFADLHAYLDNMKAPWELLELRVSYYENVIKAMLESIGVPLEKLKFIKGTDYQLSKEYTLDVYRLSSVVTQHDSKKAGAEVVKQVEHPLLSGLLYPGLQALDEEYLKVDAQFGGIDQRKIFTFAEKYLPALGYSKRVHLMNPMVPGLTGSKMSSSEEESKIDLLDRKEDVKKKLKKAFSEPGNVENNGVLSFIKHVLFPLKSEFVILRDEKWGGNKTYTAYVDLEKDFAAEVVHPGDLKNSVEVALNKLLDPIREKFNTPALKKLASAAYPDPSKQKPMCKGHHHHHH
On to B2, for which the binding entry in assay [2] was “binds”.
